According to patent US10064901B2, “Compositions and methods” (priority 2013, dated 2018):
Read-outs that look alike come from different tables or passages of the source.

Assay type: in vivo, mouse

## Clostridium_butyricum
mouse, in vivo
  OTU sequence reads after dosing (OTU-level analysis, Table TAB): subsequent and large numbers of sequence reads on Days 2, 3, or 4

## Clostridium_disporicum
Day −1 vs Days 2, 3 or 4
  increase of sequence reads: ≤ 1000 fold

## Clostridium_mayombei
Day −1 vs Days 2, 3, 4
  OTU sequence reads after dosing (OTU-level analysis, Table TAB): not detectable at the OTU level

## Clostridium_symbiosum
Day −1 vs Days 2, 3, 4
  OTU sequence reads after dosing (OTU-level analysis, Table TAB): subsequent and large numbers of sequence reads on Days 2, 3, or 4
